PubChem BioAssay AID1159578, Peter MacCallum Cancer Centre, 2015
Here is one part, drawn at random, of about 18,000 reagents. About 1,030 of all reagents (5.7%) were called active. 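Inactive calls also include pools with fewer than 3300 nuclei, whose migration was not assessed.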 Raw values are not corrected between plates. Entries without a mark were called inactive. Not all columns of the deposit are shown. No sequences are given here.

- Purpose: 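siRNA pools altering how lymphatic endothelial cells close a scratch wound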 (primary screen)
- Cell system: human lymphatic endothelial cells
- Reagent: siRNA pool against human genes, 40 nM
- Duration: 48 h after transfection
- Read-out: 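Cells stained with dye and imaged after a scratch; covered wound area and nuclei counted, duplicates averaged, migration set against mock wells and turned into a robust z-score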
- Reading the numbers: migration robust z-score: higher = faster migration into the scratch; nuclei per well: higher = more cells in the well
- Hit rule: 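Pools averaging fewer than 3300 nuclei are never called; remaining pools count as changed when migration robust z lies outside -2 to 2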
- Calls: active = migration changed; inactive = no migration change, or too few cells

| Target gene | PubChem SID | migration robust z-score | nuclei per well, duplicate mean |
| --- | --- | --- | --- |
| IL17REL (interleukin 17 receptor E like) | SID255365765 | 0.17 | 5602 |
| TMEM270 (transmembrane protein 270) | SID255362997 | -1.51 | 4889 |
| STIL (STIL centriolar assembly protein) | SID255352424 | 0.09 | 6524 |
| FTSJ1 (FtsJ RNA 2'-O-methyltransferase 1) | SID255356437 | 0.78 | 5624 |
| NFS1 (NFS1 cysteine desulfurase) | SID255353997 | -0.57 | 5420 |
| ZNF117 (zinc finger protein 117) | SID255357671 | -3.37 | 2460 |
| ASTN2 (astrotactin 2) | SID255356101 | -0.85 | 4796 |
| UGT1A9 (UDP glucuronosyltransferase family 1 member A9) | SID255358102 | -3.45 | 3177 |
| ERO1B (endoplasmic reticulum oxidoreductase 1 beta) | SID255359093 | 1.41 | 6434 |
| HES7 (hes family bHLH transcription factor 7) | SID255361454 | -1.27 | 4302 |
| MRPL17 (mitochondrial ribosomal protein L17) | SID255359753 | -1.06 | 5946 |
| IGDCC3 (immunoglobulin superfamily DCC subclass member 3) | SID255354361 | -0.08 | 5799 |
| SLC4A7 | SID255354321 | -0.9 | 6116 |
| ALCAM (activated leukocyte cell adhesion molecule) | SID255348257 | -2.02 (active) | 4882 |
| SPATS2 (spermatogenesis associated serine rich 2) | SID255360102 | -0.24 | 5090 |
| SCG2 (secretogranin II) | SID255353321 | -0.4 | 6168 |
| TBC1D8B (TBC1 domain family member 8B) | SID255358242 | -0.29 | 5762 |
| ZNF79 (zinc finger protein 79) | SID255353221 | 0.37 | 4944 |
| SEPHS1 (selenophosphate synthetase 1) | SID255355883 | 0.75 | 5289 |
| PATJ (PATJ crumbs cell polarity complex component) | SID255354895 | -0.24 | 5948 |
| CHRNA2 (cholinergic receptor nicotinic alpha 2 subunit) | SID255348919 | 0.1 | 5958 |
| ZNF202 (zinc finger protein 202) | SID255353271 | -0.01 | 5146 |
| C6orf58 (chromosome 6 open reading frame 58) | SID255365268 | 0.99 | 6270 |
| TBC1D2B (TBC1 domain family member 2B) | SID255355992 | 0.18 | 5459 |
| CS (citrate synthase) | SID255349110 | -0.6 | 4470 |
| NMI (N-myc and STAT interactor) | SID255354042 | 0.62 | 5450 |
| CPN2 (carboxypeptidase N subunit 2) | SID255349065 | -4.22 (active) | 5104 |
| NAA40 (N-alpha-acetyltransferase 40, NatD catalytic subunit) | SID255360496 | 0.09 | 6210 |
| PRPS2 (phosphoribosyl pyrophosphate synthetase 2) | SID255351844 | -0.07 | 4744 |
| PBDC1 (polysaccharide biosynthesis domain containing 1) | SID255357597 | 0.58 | 5788 |
| YIPF6 (Yip1 domain family member 6) | SID255364921 | 1.34 | 6823 |
| CPSF1 (cleavage and polyadenylation specific factor 1) | SID255357199 | -0.04 | 5760 |
| CAPN6 (calpain 6) | SID255348688 | 0.38 | 5174 |
| TBPL1 (TATA-box binding protein like 1) | SID255354339 | 0.1 | 6156 |
| AURKA (aurora kinase A) | SID255352678 | -1.56 | 3686 |
| OSM (oncostatin M) | SID255351372 | 0.42 | 6008 |
| C1orf162 (chromosome 1 open reading frame 162) | SID255362792 | -1.52 | 4906 |
| SHANK1 (SH3 and multiple ankyrin repeat domains 1) | SID255357392 | -0.16 | 6318 |
| GCN1 (GCN1 activator of EIF2AK4) | SID255355501 | -0.08 | 5928 |
| OR4N4 (olfactory receptor family 4 subfamily N member 4) | SID255364702 | 0.54 | 5750 |
| TBCK (TBC1 domain containing kinase) | SID255362088 | -1.35 | 5780 |
| PPP4C (protein phosphatase 4 catalytic subunit) | SID255351757 | 0.28 | 4586 |
| HOMEZ (homeobox and leucine zipper encoding) | SID255359495 | -2.26 (active) | 5812 |
| ZNF676 (zinc finger protein 676) | SID255363783 | -1.41 | 6109 |
| TENT4B (terminal nucleotidyltransferase 4B) | SID255359886 | -0.83 | 6326 |
| VAX2 (ventral anterior homeobox 2) | SID255356475 | 1.58 | 6161 |
| ZNF561 (zinc finger protein 561) | SID255362061 | 0.48 | 5476 |
| PRKACG (protein kinase cAMP-activated catalytic subunit gamma) | SID255351787 | -1.42 | 5244 |
| SLC16A1 | SID255352492 | 0.7 | 5786 |
| AP1G2 (adaptor related protein complex 1 subunit gamma 2) | SID255353910 | -0.08 | 5520 |
| ZNF397 (zinc finger protein 397) | SID255361320 | -1.04 | 6735 |
| ZSWIM7 (zinc finger SWIM-type containing 7) | SID255362657 | -0.16 | 5878 |
| CHST15 (carbohydrate sulfotransferase 15) | SID255357676 | 1.06 | 5198 |
| GARIN6 (golgi associated RAB2 interactor family member 6) | SID255363970 | -4.15 (active) | 6528 |
| ZNF544 (zinc finger protein 544) | SID255357018 | 0.54 | 4798 |
| ACMSD (aminocarboxymuconate semialdehyde decarboxylase) | SID255362850 | 1.14 | 6337 |
| FBXO43 (F-box protein 43) | SID255364903 | -0.62 | 5417 |

Part of the list above, showing only “nuclei per well, duplicate mean”:
ZNF202 (zinc finger protein 202) [SID255353271]	5146
C6orf58 (chromosome 6 open reading frame 58) [SID255365268]	6270
TBC1D2B (TBC1 domain family member 2B) [SID255355992]	5459
